Assay results taken from patent US20250034135A1, “ANTI-APOPTOTIC PROTEIN BCL-2 INHIBITOR, PHARMACEUTICAL COMPOSITION AND USES THEREOF” (HANGZHOU HEALZEN THERAPEUTICS CO., LTD., priority 2021, published 2025).

Chains of the proteins cited; added tags and fusions are not shown.
UniProt P10415, whole entry: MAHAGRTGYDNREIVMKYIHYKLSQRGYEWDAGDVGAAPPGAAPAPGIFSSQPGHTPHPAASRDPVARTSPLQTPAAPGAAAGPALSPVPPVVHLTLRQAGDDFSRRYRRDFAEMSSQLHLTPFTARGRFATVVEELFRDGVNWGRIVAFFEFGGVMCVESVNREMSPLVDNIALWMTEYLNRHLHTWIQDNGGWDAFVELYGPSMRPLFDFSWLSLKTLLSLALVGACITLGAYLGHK

Target: BCL2 (Homo sapiens (Human), UniProt P10415)
Assay: Molecular level activity test of anti-apoptotic protein BCL2 (HTRF, binding to Bim peptide)
Settings: read-out: BCL2 nM (inhibitory activity, IC50)

| Structure (SMILES) | IC50 |
| --- | --- |
| CC(C)c1ccccc1[C@@H]1CCCN1C1CC2(CCN(c3cc(Oc4cnc5[nH]ccc5c4)c(C(=O)NS(=O)(=O)c4cc([N+](=O)[O-])c(NCC5CCC(O)CC5)c5[nH]cnc45)cn3)CC2)C1 (stereo partly drawn) | < 10 nM |
| CC(C)c1ccccc1[C@@H]1CCCN1C1CC2(CCN(c3cc(Oc4cnc5[nH]ccc5c4)c(C(=O)NS(=O)(=O)c4cc([N+](=O)[O-])c(NC[C@H]5CC[C@](C)(O)CC5)c5[nH]cnc45)cn3)CC2)C1 | < 10 nM |
| CC(C)c1ccccc1[C@@H]1CN(Cc2ccccn2)CCN1C1CC2(CCN(c3cc(Oc4cnc5[nH]ccc5c4)c(C(=O)NS(=O)(=O)c4ccc(NCC5(F)CCOCC5)c([N+](=O)[O-])c4)cc3F)CC2)C1 | < 10 nM |

The match of structure and compound is tentative.
